Differences between knockout arms are mostly noise.
Tested on: BT-20
Test: relative cell number vs DMSO control (72 h) (% of DMSO); higher = less growth inhibition (more cells)
Procedure: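 QMAP-Seq: a pool of 5 breast cancer cell lines (ZR-75-1, SKBR3, HCC-38, MDA-MB-231, BT-20), each carrying 12 doxycycline-inducible Cas9 sgRNA perturbations (11 knockouts plus non-targeting sgNT), was treated with compounds for 72 h at four 10-fold doses (10 nM-10 uM or 1 nM-1 uM range). Barcodes were amplified and sequenced, and cell number was interpolated from 293T spike-in standard curves. The result is expressed as % of the median of DMSO wells. Two biological replicates.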

CC(C)c1cc(-c2n[nH]c(=O)n2-c2ccc3c(ccn3C)c2)c(O)cc1O [Ganetespib]
Details | relative cell number
sgRNA knockout: sgATF3, 1 nM | 88.5
sgRNA knockout: sgATF3, 10 nM | 99.2
sgRNA knockout: sgATF3, 100 nM | 42.1
sgRNA knockout: sgATF3, 1000 nM | 44.8
sgRNA knockout: sgATF4, 1 nM | 94.7
sgRNA knockout: sgATF4, 10 nM | 115
sgRNA knockout: sgATF4, 100 nM | 34.6
sgRNA knockout: sgATF4, 1000 nM | 43.9
sgRNA knockout: sgATF6, 1 nM | 85.5
sgRNA knockout: sgATF6, 10 nM | 100.2
sgRNA knockout: sgATF6, 100 nM | 44.2
sgRNA knockout: sgATF6, 1000 nM | 40.2
sgRNA knockout: sgATG7, 1 nM | 104
sgRNA knockout: sgATG7, 10 nM | 101
sgRNA knockout: sgATG7, 100 nM | 45.7
sgRNA knockout: sgATG7, 1000 nM | 37.4
sgRNA knockout: sgERN1, 1 nM | 93.5
sgRNA knockout: sgERN1, 10 nM | 85.5
sgRNA knockout: sgERN1, 100 nM | 37.5
sgRNA knockout: sgERN1, 1000 nM | 35.8
sgRNA knockout: sgHSF1, 1 nM | 96.3
sgRNA knockout: sgHSF1, 10 nM | 98.7
sgRNA knockout: sgHSF1, 100 nM | 39.1
sgRNA knockout: sgHSF1, 1000 nM | 37.5
sgRNA knockout: sgHSF2, 1 nM | 86.5
sgRNA knockout: sgHSF2, 10 nM | 99.8
sgRNA knockout: sgHSF2, 100 nM | 41.9
sgRNA knockout: sgHSF2, 1000 nM | 35
sgRNA knockout: sgKEAP1, 1 nM | 88
sgRNA knockout: sgKEAP1, 10 nM | 101
sgRNA knockout: sgKEAP1, 100 nM | 37.5
sgRNA knockout: sgKEAP1, 1000 nM | 40
sgRNA knockout: sgNFE2L2, 1 nM | 101
sgRNA knockout: sgNFE2L2, 10 nM | 91.6
sgRNA knockout: sgNFE2L2, 100 nM | 44.7
sgRNA knockout: sgNFE2L2, 1000 nM | 41.3
sgRNA knockout: sgSLC35F2, 1 nM | 92.4
sgRNA knockout: sgSLC35F2, 10 nM | 113
sgRNA knockout: sgSLC35F2, 100 nM | 37.3
sgRNA knockout: sgSLC35F2, 1000 nM | 42.6
sgRNA knockout: sgXBP1, 1 nM | 95.1
sgRNA knockout: sgXBP1, 10 nM | 101
sgRNA knockout: sgXBP1, 100 nM | 37.01
sgRNA knockout: sgXBP1, 1000 nM | 37.5

O=C(Cc1ccc(-c2ccc(OCCN3CCOCC3)cc2)cn1)NCc1ccccc1 [KX2391]
Details | relative cell number
sgRNA knockout: sgATF3, 10 nM | 131
sgRNA knockout: sgATF3, 100 nM | 41.4
sgRNA knockout: sgATF3, 1000 nM | 25.6
sgRNA knockout: sgATF3, 10000 nM | 32.6
sgRNA knockout: sgATF4, 10 nM | 126
sgRNA knockout: sgATF4, 100 nM | 34.8
sgRNA knockout: sgATF4, 1000 nM | 30.9
sgRNA knockout: sgATF4, 10000 nM | 37.76
sgRNA knockout: sgATF6, 10 nM | 109
sgRNA knockout: sgATF6, 100 nM | 28.1
sgRNA knockout: sgATF6, 1000 nM | 34.6
sgRNA knockout: sgATF6, 10000 nM | 30.1
sgRNA knockout: sgATG7, 10 nM | 122
sgRNA knockout: sgATG7, 100 nM | 26.7
sgRNA knockout: sgATG7, 1000 nM | 34
sgRNA knockout: sgATG7, 10000 nM | 36.4
sgRNA knockout: sgERN1, 10 nM | 127
sgRNA knockout: sgERN1, 100 nM | 39.03
sgRNA knockout: sgERN1, 1000 nM | 34.2
sgRNA knockout: sgERN1, 10000 nM | 37.3
sgRNA knockout: sgHSF1, 10 nM | 119
sgRNA knockout: sgHSF1, 100 nM | 35.9
sgRNA knockout: sgHSF1, 1000 nM | 29.5
sgRNA knockout: sgHSF1, 10000 nM | 35.1
sgRNA knockout: sgHSF2, 10 nM | 118
sgRNA knockout: sgHSF2, 100 nM | 34.7
sgRNA knockout: sgHSF2, 1000 nM | 42.5
sgRNA knockout: sgHSF2, 10000 nM | 37.6
sgRNA knockout: sgKEAP1, 10 nM | 124
sgRNA knockout: sgKEAP1, 100 nM | 37.9
sgRNA knockout: sgKEAP1, 1000 nM | 29.8
sgRNA knockout: sgKEAP1, 10000 nM | 36.2
sgRNA knockout: sgNFE2L2, 10 nM | 123
sgRNA knockout: sgNFE2L2, 100 nM | 32.9
sgRNA knockout: sgNFE2L2, 1000 nM | 42.1
sgRNA knockout: sgNFE2L2, 10000 nM | 24.9
sgRNA knockout: sgSLC35F2, 10 nM | 117
sgRNA knockout: sgSLC35F2, 100 nM | 41
sgRNA knockout: sgSLC35F2, 1000 nM | 33.6
sgRNA knockout: sgSLC35F2, 10000 nM | 42.5
sgRNA knockout: sgXBP1, 10 nM | 137
sgRNA knockout: sgXBP1, 100 nM | 44.1
sgRNA knockout: sgXBP1, 1000 nM | 32.8
sgRNA knockout: sgXBP1, 10000 nM | 37.52

Source: the supplement of paper PMC7661543
